The source of these data is ChEMBL document CHEMBL3301458, “MMV Malaria Box hERG screening”.

Sequences of proteins named here, by UniProt entry; tags and fusion partners are left off. A change or cut given only in a name is not applied to a line headed by its entry.
UniProt Q12809: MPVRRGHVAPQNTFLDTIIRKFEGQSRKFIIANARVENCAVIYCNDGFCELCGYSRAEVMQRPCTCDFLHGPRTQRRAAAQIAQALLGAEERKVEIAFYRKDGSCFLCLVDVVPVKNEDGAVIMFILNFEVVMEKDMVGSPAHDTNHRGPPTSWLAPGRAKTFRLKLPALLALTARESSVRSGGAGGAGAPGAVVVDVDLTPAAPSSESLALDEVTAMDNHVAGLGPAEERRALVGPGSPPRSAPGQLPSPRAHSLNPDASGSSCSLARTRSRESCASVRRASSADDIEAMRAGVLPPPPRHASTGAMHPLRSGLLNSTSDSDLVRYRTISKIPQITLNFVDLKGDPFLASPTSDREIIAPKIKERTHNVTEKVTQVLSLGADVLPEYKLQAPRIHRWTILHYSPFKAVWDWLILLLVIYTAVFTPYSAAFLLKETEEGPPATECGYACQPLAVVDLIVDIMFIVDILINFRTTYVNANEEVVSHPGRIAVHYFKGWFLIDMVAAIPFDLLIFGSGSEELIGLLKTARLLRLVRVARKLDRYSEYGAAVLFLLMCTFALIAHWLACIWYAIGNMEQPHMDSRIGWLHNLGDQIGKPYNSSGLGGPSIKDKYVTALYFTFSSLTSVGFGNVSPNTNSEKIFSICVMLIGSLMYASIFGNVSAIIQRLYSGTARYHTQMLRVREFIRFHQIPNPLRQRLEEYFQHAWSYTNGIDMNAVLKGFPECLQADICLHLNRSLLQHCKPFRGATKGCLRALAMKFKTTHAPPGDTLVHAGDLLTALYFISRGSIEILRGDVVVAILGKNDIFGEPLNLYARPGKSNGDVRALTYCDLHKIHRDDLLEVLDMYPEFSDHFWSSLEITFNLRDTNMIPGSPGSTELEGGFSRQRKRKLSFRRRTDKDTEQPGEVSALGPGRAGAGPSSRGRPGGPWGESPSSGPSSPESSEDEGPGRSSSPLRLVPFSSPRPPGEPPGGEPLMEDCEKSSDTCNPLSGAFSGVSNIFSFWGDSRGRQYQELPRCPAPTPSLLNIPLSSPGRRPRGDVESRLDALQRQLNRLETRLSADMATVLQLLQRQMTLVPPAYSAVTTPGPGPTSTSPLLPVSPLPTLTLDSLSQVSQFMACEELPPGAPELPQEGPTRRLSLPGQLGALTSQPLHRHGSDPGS

Active and inactive are the calls of the source. The rule behind the calls is not given here.

Data set [1] has as its target T1, hERG (Kv11.1, KCNH2) (Homo sapiens, UniProt Q12809). Put plainly: in vitro.
Data set [2] deals with T1, hERG (Kv11.1, KCNH2). Put plainly: in vitro. This is another data set of the same source.

`C=CC12CCN(CC1)C(C(O)c1ccnc3ccc(OC)cc13)C2` (configuration not stated): the inhibition (in general, the change of the read-out against control, counted positive when it falls) at 11.1 µM at hERG (Kv11.1, KCNH2) [1] was active: 84%. This molecule also gave an inhibition at 1.1 µM on hERG (Kv11.1, KCNH2) [2] of 20%.
